Reference: patent US20220125744A1
Results are given in words; binding and its absence hold for the method and conditions named. Some binding calls cover weakened binding; strength is not graded here.

Amino acid sequences for entries named in this document (tags omitted).
UniProt Q92731: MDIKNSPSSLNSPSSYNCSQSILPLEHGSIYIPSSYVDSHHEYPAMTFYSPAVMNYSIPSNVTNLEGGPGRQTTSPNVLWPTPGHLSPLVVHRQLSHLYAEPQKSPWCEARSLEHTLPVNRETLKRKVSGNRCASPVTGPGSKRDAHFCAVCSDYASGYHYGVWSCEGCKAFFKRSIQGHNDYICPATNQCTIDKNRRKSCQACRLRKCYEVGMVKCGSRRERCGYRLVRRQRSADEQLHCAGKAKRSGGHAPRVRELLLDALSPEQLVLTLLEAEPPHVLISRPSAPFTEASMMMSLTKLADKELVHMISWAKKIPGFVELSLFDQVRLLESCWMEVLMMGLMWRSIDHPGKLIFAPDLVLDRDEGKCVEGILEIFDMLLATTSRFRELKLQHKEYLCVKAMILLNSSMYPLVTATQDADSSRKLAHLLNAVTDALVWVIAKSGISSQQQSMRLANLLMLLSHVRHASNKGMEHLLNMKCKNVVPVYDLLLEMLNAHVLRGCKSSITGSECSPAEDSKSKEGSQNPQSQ

Legend:
TP73, endogenous [1] = biological target: T1, TP73, endogenous (UniProt O15350); assay: in situ PLA with anti-FLAG and anti-TP73 antibodies, MDA-MB-231 and SK-BR-3 (FIGS. 16B-C)
T1 sequence (looked up): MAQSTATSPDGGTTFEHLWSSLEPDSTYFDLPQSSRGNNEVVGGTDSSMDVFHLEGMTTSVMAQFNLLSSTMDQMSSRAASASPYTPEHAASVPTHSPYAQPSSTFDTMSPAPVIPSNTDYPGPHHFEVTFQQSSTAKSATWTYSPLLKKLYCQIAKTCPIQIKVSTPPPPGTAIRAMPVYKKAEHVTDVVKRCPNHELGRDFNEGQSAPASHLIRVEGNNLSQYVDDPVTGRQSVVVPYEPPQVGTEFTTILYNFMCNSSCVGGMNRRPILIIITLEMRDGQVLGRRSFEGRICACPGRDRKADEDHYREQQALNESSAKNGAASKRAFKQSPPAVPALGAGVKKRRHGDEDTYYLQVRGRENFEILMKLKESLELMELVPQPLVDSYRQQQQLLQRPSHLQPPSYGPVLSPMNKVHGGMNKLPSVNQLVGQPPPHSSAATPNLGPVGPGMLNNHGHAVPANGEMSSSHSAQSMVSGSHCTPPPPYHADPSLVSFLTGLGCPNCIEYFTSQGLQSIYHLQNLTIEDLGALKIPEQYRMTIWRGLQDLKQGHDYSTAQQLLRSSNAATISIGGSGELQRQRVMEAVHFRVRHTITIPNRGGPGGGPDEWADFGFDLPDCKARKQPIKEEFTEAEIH

TP73, endogenous [2] = biological target: T1, TP73, endogenous; assay: in situ PLA, MDA-MB-231 (FIG. 16A)

Substance | binding (TP73, endogenous [1]) | binding (TP73, endogenous [2])
N-terminally FLAG-tagged human ESR2 full-length (from UniProt Q92731 1-530) (receptor) | binds | –
estrogen receptor-beta (ESR2), endogenous (from UniProt Q92731 1-530) | – | binds
